Assay [1] concerns the target T1, NLRP1 (wild-type full-length human NLRP1) (human) (UniProt Q9C000).
T1 sequence: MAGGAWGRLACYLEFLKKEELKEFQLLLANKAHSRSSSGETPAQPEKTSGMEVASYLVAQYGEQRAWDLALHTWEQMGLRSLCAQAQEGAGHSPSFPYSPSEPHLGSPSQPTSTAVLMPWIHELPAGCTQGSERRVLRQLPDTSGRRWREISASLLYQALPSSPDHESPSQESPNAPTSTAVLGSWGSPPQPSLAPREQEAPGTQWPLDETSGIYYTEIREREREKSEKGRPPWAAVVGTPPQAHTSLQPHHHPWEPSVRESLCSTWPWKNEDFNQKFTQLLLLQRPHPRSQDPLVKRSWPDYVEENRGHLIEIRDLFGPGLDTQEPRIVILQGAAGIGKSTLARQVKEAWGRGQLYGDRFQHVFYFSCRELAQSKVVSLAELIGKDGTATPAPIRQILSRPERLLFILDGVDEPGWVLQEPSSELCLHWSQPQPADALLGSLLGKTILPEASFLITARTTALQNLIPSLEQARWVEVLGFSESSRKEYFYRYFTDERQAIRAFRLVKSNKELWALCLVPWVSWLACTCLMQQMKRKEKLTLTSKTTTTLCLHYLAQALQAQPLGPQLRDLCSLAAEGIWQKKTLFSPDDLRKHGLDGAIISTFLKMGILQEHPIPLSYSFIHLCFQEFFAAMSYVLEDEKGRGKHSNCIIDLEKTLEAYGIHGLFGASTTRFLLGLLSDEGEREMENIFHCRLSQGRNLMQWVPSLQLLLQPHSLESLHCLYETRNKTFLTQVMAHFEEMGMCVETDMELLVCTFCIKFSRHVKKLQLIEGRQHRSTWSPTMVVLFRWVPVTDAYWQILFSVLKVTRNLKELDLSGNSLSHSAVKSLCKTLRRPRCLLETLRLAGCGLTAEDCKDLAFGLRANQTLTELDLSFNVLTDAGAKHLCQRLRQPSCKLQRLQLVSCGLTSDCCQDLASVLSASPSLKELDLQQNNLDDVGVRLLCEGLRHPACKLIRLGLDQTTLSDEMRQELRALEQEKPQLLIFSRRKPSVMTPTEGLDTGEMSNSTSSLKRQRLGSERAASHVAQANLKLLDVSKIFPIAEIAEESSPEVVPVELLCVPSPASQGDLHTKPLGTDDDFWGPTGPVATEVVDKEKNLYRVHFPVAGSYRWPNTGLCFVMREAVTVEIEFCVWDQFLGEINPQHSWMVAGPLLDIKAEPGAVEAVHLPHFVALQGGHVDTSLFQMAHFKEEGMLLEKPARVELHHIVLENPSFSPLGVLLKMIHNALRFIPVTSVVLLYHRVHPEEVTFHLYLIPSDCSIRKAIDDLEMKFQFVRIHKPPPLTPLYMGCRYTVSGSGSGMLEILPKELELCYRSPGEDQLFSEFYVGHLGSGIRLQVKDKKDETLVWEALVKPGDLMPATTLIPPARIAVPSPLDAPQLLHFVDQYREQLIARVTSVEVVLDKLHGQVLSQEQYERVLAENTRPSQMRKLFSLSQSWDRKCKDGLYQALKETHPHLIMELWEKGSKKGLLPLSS
Put plainly: co-IP.

The chains behind the UniProt entries cited, without tags or fusion partners.
UniProt Q9ULZ3: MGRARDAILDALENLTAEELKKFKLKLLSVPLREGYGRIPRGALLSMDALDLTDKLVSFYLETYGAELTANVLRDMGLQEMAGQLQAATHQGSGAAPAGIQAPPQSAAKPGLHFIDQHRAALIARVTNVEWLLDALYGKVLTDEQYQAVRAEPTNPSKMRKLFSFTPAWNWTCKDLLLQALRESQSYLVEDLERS

Assay [2] addresses full-length ASC (pBIND, DNA-binding domain fusion) (human) (UniProt Q9ULZ3). Put plainly: two-hybrid.
The target in assay [3] is NLRP1 LRR domain (truncation mutant of NLRP1) (human) (UniProt Q9C000). The experiment in a line: co-IP.

These are yes or no findings as the source states them, for the method shown. Binding calls can cover weak binding; strength is not graded here. For part of these data: Binding seen in cells or lysates may run through a third protein.

“CARD8-T60 ZU5 subdomain (truncation mutant of CARD8-T60) (from UniProt Q9Y2G2-5) (domain or fragment)”: the binding entry in assay [1] is listed as “binds”. For the molecule “NLRP1 UPA-CARD fragment (pACT, VP16 activation domain fusion) (from UniProt Q9C000-1) (domain or fragment)”, the binding result in assay [2] was “binds”.

B1: CARD8-T60 isoform (full-length) (natural protein)
chain: MEKKECPEKSSSSEEELPRRDSGSSRNIDASKLIRLQGSRKLLVDNSIRELQYTKTGIFFQAEACVTNDTVYRELPCVSETLCDISHFFQEDDETEAEPLLFRAVPECQLSGGDIPSVSEEQESSEGQDSGDICSEENQIVSSYASKVCFEIEEDYKNRQFLGPEGNVDVELIDKSTNRYSVWFPTAGWYLWSATGLGFLVRDEVTVTIAFGSWSQHLALDLQHHEQWLVGGPLFDVTAEPEEAVAEIHLPHFISLQAGEVDVSWFLVAHFKNEGMVLEHPARVEPFYAVLESPSFSLMGILLRIASGTRLSIPITSNTLIYYHPHPEDIKFHLYLVPSDALLTKAIDDEEDRFHGVRLQTSPPMEPLNFGSSYIVSNSANLKVMPKELKLSYRSPGEIQHFSKFYAGQMKEPIQLEITEKRHGTLVWDTEVKPVDLQLVAASAPPPFSGAAFVKENHRQLQARMGDLKGVLDDLQDNEVLTENEKELVEQEKTRQSKNEALLSMVEKKGDLALDVLFRSISERDPYLVSYLRQQNL
On to B1, for which the binding result in assay [3] was “binds”.

These data come from paper doi:10.1101/2022.06.26.497666 (bioRxiv, 2022).
